Measured values published in the supplement of paper PMC10849652.
This is one part of the list.

The chains behind the UniProt entries cited, without tags or fusion partners. Where a name states a change or a piece, a line headed by the entry shows the natural chain unless it says otherwise.
UniProt P20339: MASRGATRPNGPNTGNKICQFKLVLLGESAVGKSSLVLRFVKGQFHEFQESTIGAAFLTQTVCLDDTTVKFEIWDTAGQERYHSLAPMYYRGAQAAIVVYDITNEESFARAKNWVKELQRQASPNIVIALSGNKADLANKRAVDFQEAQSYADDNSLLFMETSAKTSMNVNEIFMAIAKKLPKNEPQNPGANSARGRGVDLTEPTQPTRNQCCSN
UniProt P51148: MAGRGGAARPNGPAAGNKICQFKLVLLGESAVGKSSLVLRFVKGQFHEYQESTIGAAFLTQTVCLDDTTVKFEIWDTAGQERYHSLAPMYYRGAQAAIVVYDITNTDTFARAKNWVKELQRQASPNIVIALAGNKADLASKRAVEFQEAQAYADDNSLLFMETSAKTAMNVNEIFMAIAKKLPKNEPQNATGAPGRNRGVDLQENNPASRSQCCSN
UniProt Q9NRW1: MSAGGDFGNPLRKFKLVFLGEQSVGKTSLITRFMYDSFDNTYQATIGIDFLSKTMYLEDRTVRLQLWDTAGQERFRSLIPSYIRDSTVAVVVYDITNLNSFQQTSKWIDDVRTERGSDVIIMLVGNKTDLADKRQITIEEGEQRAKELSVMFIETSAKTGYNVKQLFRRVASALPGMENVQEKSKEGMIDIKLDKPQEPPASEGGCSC
UniProt Q92696: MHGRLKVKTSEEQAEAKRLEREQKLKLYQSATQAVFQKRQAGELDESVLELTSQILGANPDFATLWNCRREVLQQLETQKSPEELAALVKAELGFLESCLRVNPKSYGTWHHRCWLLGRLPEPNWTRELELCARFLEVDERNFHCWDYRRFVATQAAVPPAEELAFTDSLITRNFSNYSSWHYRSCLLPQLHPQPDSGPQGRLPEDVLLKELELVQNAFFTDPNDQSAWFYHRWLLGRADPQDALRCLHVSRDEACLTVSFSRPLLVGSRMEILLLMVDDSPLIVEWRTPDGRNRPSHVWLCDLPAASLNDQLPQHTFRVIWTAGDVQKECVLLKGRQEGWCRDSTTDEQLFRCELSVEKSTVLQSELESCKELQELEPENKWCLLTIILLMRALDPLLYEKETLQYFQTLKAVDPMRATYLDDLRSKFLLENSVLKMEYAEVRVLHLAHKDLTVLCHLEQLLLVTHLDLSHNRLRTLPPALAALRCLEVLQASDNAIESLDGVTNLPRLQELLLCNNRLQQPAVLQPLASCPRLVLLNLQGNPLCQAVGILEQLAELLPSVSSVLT
UniProt Q9UKM9: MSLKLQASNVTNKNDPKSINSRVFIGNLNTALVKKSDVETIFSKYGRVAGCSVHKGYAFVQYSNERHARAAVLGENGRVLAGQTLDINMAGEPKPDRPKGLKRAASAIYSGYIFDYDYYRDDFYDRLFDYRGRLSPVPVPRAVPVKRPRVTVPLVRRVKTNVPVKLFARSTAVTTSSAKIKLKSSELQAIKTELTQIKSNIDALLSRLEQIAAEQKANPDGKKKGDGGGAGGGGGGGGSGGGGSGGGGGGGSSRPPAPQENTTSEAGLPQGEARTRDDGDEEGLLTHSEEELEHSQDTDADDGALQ
UniProt Q96EV2: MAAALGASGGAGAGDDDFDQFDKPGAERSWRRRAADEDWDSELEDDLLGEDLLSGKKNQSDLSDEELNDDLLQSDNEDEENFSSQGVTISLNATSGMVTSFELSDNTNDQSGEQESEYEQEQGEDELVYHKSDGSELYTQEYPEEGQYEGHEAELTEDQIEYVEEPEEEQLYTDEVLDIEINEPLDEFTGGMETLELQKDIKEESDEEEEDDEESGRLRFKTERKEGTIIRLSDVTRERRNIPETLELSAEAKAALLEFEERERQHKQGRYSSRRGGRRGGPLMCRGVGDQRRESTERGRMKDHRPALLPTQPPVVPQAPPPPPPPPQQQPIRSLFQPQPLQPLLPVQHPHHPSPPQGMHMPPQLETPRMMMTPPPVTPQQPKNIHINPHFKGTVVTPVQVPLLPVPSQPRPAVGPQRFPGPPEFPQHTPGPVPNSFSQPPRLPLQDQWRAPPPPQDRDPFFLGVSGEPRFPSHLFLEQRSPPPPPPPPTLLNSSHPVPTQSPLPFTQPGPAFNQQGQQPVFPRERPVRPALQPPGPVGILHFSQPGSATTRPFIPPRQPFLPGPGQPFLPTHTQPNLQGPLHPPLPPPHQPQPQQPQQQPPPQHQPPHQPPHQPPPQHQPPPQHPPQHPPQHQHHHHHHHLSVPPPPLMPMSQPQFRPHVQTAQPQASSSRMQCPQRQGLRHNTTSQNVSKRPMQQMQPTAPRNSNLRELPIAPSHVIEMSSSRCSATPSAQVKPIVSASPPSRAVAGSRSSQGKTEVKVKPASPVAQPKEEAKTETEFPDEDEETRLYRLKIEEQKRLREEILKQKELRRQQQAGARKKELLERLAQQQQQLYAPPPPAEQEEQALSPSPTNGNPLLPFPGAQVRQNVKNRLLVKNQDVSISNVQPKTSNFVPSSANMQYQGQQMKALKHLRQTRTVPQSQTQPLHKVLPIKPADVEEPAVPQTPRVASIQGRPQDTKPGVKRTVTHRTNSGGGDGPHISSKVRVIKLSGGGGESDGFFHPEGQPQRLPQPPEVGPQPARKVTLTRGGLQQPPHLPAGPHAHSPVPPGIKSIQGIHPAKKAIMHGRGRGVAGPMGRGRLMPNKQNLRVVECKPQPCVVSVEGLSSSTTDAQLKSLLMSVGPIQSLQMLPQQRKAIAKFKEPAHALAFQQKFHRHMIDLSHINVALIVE
UniProt Q9NW64: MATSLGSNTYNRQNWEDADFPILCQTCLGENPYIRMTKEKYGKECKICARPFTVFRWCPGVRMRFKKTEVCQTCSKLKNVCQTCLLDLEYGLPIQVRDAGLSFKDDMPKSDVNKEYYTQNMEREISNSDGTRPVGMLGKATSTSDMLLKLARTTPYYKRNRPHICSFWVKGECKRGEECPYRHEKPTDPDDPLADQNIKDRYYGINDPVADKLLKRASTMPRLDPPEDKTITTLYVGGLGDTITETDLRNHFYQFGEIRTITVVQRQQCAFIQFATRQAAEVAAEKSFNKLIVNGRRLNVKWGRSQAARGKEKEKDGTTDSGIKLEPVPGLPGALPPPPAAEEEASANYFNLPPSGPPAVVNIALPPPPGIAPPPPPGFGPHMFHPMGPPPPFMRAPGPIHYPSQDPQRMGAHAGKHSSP
UniProt P54725: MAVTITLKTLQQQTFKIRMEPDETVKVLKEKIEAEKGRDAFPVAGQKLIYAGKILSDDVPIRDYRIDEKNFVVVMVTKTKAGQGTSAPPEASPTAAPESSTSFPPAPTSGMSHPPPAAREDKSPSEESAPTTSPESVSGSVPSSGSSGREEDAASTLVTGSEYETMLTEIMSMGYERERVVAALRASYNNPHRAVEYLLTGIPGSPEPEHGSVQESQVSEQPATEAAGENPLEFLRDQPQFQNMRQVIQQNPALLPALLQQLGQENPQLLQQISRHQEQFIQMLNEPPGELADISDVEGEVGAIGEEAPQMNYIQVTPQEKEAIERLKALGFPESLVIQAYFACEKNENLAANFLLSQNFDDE
UniProt P61018: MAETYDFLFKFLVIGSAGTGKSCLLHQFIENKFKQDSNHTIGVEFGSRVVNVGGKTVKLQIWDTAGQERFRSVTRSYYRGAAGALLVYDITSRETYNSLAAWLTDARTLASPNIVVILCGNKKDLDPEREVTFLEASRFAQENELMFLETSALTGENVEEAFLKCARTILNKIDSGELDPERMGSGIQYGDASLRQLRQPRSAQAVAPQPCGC
UniProt P61006: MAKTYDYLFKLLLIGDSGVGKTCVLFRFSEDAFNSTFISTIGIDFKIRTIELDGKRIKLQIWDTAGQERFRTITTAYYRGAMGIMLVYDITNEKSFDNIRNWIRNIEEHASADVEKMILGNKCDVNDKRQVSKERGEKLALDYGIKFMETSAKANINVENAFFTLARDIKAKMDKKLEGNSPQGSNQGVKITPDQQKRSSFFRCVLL
UniProt Q06609, whole entry, looked up: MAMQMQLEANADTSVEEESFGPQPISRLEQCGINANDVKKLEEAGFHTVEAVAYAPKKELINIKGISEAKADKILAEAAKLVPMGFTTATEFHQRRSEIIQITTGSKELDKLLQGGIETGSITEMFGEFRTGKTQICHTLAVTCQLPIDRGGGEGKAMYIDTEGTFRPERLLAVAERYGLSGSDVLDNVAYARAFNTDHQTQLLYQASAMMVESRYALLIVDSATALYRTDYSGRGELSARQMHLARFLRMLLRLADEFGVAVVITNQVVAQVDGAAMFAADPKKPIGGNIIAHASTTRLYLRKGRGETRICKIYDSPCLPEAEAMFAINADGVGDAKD
UniProt Q9NP72: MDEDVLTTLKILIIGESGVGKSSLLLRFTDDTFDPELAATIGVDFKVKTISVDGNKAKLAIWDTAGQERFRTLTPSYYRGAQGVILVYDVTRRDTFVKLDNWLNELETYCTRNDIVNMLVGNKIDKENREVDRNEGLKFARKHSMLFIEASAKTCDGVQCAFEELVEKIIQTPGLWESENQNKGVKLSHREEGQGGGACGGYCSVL
UniProt Q8WUD1: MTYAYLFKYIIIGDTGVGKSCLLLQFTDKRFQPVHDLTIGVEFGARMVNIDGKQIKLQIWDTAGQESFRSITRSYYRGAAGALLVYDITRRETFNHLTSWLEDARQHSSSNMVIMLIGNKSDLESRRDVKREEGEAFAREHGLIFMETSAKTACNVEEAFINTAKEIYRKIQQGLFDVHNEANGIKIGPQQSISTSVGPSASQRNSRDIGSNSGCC
UniProt O60216: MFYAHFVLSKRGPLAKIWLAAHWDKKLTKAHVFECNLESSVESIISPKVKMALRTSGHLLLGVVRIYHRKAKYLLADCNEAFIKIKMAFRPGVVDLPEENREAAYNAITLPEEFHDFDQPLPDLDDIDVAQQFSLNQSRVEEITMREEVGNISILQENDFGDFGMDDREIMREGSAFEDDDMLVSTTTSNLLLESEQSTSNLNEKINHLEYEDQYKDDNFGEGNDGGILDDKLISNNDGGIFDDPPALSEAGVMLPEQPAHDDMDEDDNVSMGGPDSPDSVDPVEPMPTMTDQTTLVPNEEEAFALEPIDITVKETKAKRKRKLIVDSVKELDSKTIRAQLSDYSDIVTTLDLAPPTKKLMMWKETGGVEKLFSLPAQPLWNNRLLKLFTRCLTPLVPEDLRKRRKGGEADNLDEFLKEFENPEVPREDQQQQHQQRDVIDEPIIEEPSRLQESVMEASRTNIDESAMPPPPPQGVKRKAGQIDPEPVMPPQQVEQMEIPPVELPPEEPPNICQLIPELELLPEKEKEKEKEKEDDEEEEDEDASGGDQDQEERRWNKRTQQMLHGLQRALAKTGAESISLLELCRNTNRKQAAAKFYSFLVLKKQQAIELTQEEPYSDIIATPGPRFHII

Experiments:
Assay in all cases: log2 fold change, soluble protein after heating vs DMSO (PISA); higher = thermal stabilisation; K562 cells, 10 uM, 30 min; active = over 0.2 and 3.5 SD of the protein, either way, in both replicates (recomputed)
bafetinib = compound: Cc1ccc(NC(=O)c2ccc(CN3CC[C@H](N(C)C)C3)c(C(F)(F)F)c2)cc1Nc1nccc(-c2cncnc2)n1 [bafetinib]
Procedure, shortened: (§1)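 K562 cells at 2×10^6 cells/mL were treated for 30 min with 10 μM compound, and aliquots were heated for 3 min over 48°C-58°C before pooling. Extraction used PBS with 0.5% NP-40 at 4°C, and soluble protein was the supernatant after 21,000xg for 90 min, measured by TMTpro 16plex LC-MS/MS with channel sums equalised. Thermal stability values, relative to control samples and from duplicates, are log2 fold changes.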

[1] = compound: Cc1cccc(CC(=O)N2CCc3c2ccc(-c2cn(C)c4ncnc(N)c24)c3F)n1
Procedure, shortened: as §1

nilotinib = compound: Cc1cn(-c2cc(NC(=O)c3ccc(C)c(Nc4nccc(-c5cccnc5)n4)c3)cc(C(F)(F)F)c2)cn1 [nilotinib]
Procedure, shortened: as §1

[2] = compound: Cc1nc(Nc2n[nH]c3c2CN(C(=O)N[C@H](CN(C)C)c2ccccc2)C3(C)C)c2sccc2n1
Procedure, shortened: as §1

dasatinib = compound: Cc1nc(Nc2ncc(C(=O)Nc3c(C)cccc3Cl)s2)cc(N2CCN(CCO)CC2)n1 [dasatinib]
Procedure, shortened: as §1

[3] = compound: Cc1ncc(-c2ccnc(Nc3ccc(S(C)(=O)=O)cc3)n2)n1C(C)C
Procedure, shortened: as §1

[4] = compound: Cn1cc(-c2ccc3c(c2)CCN3C(=O)Cc2cccc(C(F)(F)F)c2)c2c(N)ncnc21
Procedure, shortened: as §1

[5] = compound: Cn1cc(-c2ccc3nnc(C(F)(F)c4ccc5ncccc5c4)n3n2)cn1
Procedure, shortened: as §1

tipifarnib = compound: Cn1cncc1[C@@](N)(c1ccc(Cl)cc1)c1ccc2c(c1)c(-c1cccc(Cl)c1)cc(=O)n2C [tipifarnib]
Procedure, shortened: as §1

mubritinib = compound: FC(F)(F)c1ccc(/C=C/c2nc(COc3ccc(CCCCn4ccnn4)cc3)co2)cc1 [mubritinib]
Procedure, shortened: as §1

[6] = compound: NC(=O)Nc1cc(-c2cccc(F)c2)sc1C(=O)N[C@H]1CCCNC1
Procedure, shortened: as §1

[7] = compound: NC(=O)c1cnc(N[C@@H]2CCCC[C@@H]2N)nc1Nc1cccc(-n2nccn2)c1
Procedure, shortened: as §1

[8] = compound: NC1(c2ccc(-c3nc4ccn5c(=O)[nH]nc5c4cc3-c3ccccc3)cc2)CCC1
Procedure, shortened: as §1

[9] = compound: NCC(=O)Nc1ccc(-n2nc(C(F)(F)F)cc2-c2ccc3c(ccc4ccccc43)c2)cc1
Procedure, shortened: as §1

entinostat = compound: Nc1ccccc1NC(=O)c1ccc(CNC(=O)OCc2cccnc2)cc1 [entinostat]
Procedure, shortened: as §1

vorinostat = compound: O=C(CCCCCCC(=O)Nc1ccccc1)NO [vorinostat]
Procedure, shortened: as §1

citarinostat = compound: O=C(CCCCCCNC(=O)c1cnc(N(c2ccccc2)c2ccccc2Cl)nc1)NO [citarinostat]
Procedure, shortened: as §1

silmitasertib = compound: O=C(O)c1ccc2c(c1)nc(Nc1cccc(Cl)c1)c1ccncc12 [silmitasertib]
Procedure, shortened: as §1

[10] = compound: O=C1NC(=O)C(c2cnc3ccccn23)=C1c1cn2c3c(cc(F)cc13)CN(C(=O)N1CCCCC1)CC2
Procedure, shortened: as §1

[11] = compound: c1cc(OCCN2CCCCC2)cc(-c2n[nH]c3ccc(-c4nnc[nH]4)cc23)c1
Procedure, shortened: as §1

Measured: log2 fold change

RACK1 (UniProt P63244)
inactive: bafetinib 0.043 | [1] -0.001 | nilotinib 0.009 | [2] 0.125 | dasatinib -0.004 | [3] -0.035 | [4] 0.024 | [5] 0.016 | tipifarnib -0.052 | mubritinib 0.061 | [6] 0.008 | [7] 0.056 | [8] -0.059 | [9] -0.014 | entinostat -0.003 | vorinostat 0.017 | citarinostat 0.064 | silmitasertib -0.077 | [10] -0.03 | [11] -0.027

RAB5A (UniProt P20339)
inactive: bafetinib 0.007 | [1] 0.06 | nilotinib 0.04 | [2] -0.002 | dasatinib 0.09 | [3] 0.011 | [4] 0.05 | [5] 0.008 | tipifarnib 0 | mubritinib -0.012 | [6] 0.053 | [7] 0.092 | [8] 0.026 | [9] 0.116 | entinostat 0.06 | vorinostat 0.091 | citarinostat -0.007 | silmitasertib -0.055 | [10] 0.04 | [11] 0.034

RAB5C isoform 2 (UniProt P51148)
inactive: bafetinib -0.005 | [1] -0.021 | nilotinib 0.019 | [2] -0.019 | dasatinib 0.014 | [3] -0.003 | [4] 0.043 | [5] -0.027 | tipifarnib 0.006 | mubritinib 0.031 | [6] 0.092 | [7] 0.041 | [8] 0.017 | [9] 0.051 | entinostat 0.007 | vorinostat -0.001 | citarinostat -0.004 | silmitasertib -0.009 | [10] 0.049 | [11] -0.028

RAB6B (UniProt Q9NRW1)
inactive: bafetinib -0.055 | [1] -0.083 | nilotinib -0.031 | [2] 0.016 | dasatinib 0.022 | [3] 0 | [4] 0.039 | [5] -0.051 | tipifarnib 0.035 | mubritinib -0.008 | [6] 0.036 | [7] 0.06 | [8] 0.059 | [9] -0.026 | entinostat -0.009 | vorinostat -0.021 | citarinostat 0.012 | silmitasertib 0.019 | [10] 0.02 | [11] 0.025

RABGGTA (UniProt Q92696)
active: [8] -0.257
inactive: bafetinib -0.019 | [1] 0.027 | nilotinib 0.033 | [2] -0.088 | dasatinib 0.076 | [3] -0.076 | [4] 0.089 | [5] -0.015 | tipifarnib 0.08 | mubritinib 0.002 | [6] 0.034 | [7] -0.008 | [9] 0.051 | entinostat -0.05 | vorinostat 0.005 | citarinostat 0.038 | silmitasertib 0.008 | [10] 0.003 | [11] 0.027

RALY (UniProt Q9UKM9)
inactive: bafetinib 0.077 | [1] -0.069 | nilotinib -0.029 | [2] 0.051 | dasatinib 0.249 | [3] -0.151 | [4] -0.596 | [5] -0.011 | tipifarnib -0.118 | mubritinib -0.257 | [6] -0.039 | [7] 0.071 | [8] 0.353 | [9] 0.026 | entinostat -0.02 | vorinostat -0.105 | citarinostat -0.064 | silmitasertib 0.128 | [10] 0.072 | [11] -0.106

RBM33 (UniProt Q96EV2)
inactive: bafetinib -0.055 | [1] 0.012 | nilotinib -0.036 | [2] -0.143 | dasatinib 0.013 | [3] -0.11 | [4] 0.024 | [5] -0.013 | tipifarnib 0.085 | mubritinib -0.004 | [6] 0.019 | [7] -0.055 | [8] -0.024 | [9] 0.003 | entinostat 0.027 | vorinostat 0.037 | citarinostat 0.042 | silmitasertib 0.038 | [10] -0.003 | [11] -0.046

RBM22 (UniProt Q9NW64)
inactive: bafetinib -0.085 | [1] 0 | nilotinib -0.019 | [2] -0.051 | dasatinib -0.07 | [3] 0.024 | [4] -0.133 | [5] -0.071 | tipifarnib 0.008 | mubritinib -0.048 | [6] -0.027 | [7] -0.004 | [8] 0.032 | [9] -0.049 | entinostat -0.008 | vorinostat -0.009 | citarinostat -0.038 | silmitasertib 0.119 | [10] -0.063 | [11] -0.043

RAD23A (UniProt P54725)
inactive: bafetinib -0.061 | [1] -0.111 | nilotinib -0.029 | [2] 0.014 | dasatinib 0.042 | [3] 0.012 | [4] 0.104 | [5] 0.004 | tipifarnib 0.021 | mubritinib 0.027 | [6] -0.021 | [7] -0.034 | [8] 0.007 | [9] 0.009 | entinostat -0.017 | vorinostat -0.016 | citarinostat 0.025 | silmitasertib -0.002 | [10] -0.076 | [11] -0.001

2 neighbouring entries out of the list so far, quoted:
RACK1 (UniProt P63244)
inactive: bafetinib 0.043 | [1] -0.001 | nilotinib 0.009 | [2] 0.125 | dasatinib -0.004 | [3] -0.035 | [4] 0.024 | [5] 0.016 | tipifarnib -0.052 | mubritinib 0.061 | [6] 0.008 | [7] 0.056 | [8] -0.059 | [9] -0.014 | entinostat -0.003 | vorinostat 0.017 | citarinostat 0.064 | silmitasertib -0.077 | [10] -0.03 | [11] -0.027

RAB5A (UniProt P20339)
inactive: bafetinib 0.007 | [1] 0.06 | nilotinib 0.04 | [2] -0.002 | dasatinib 0.09 | [3] 0.011 | [4] 0.05 | [5] 0.008 | tipifarnib 0 | mubritinib -0.012 | [6] 0.053 | [7] 0.092 | [8] 0.026 | [9] 0.116 | entinostat 0.06 | vorinostat 0.091 | citarinostat -0.007 | silmitasertib -0.055 | [10] 0.04 | [11] 0.034

(continued)

RAB4B isoform 2 (UniProt P61018)
inactive: bafetinib -0.058 | [1] -0.046 | nilotinib -0.004 | [2] 0.028 | dasatinib 0.031 | [3] -0.016 | [4] 0.059 | [5] 0.01 | tipifarnib -0.009 | mubritinib 0.024 | [6] -0.009 | [7] 0 | [8] -0.042 | [9] -0.031 | entinostat -0.033 | vorinostat -0.049 | citarinostat 0.011 | silmitasertib -0.007 | [10] -0.006 | [11] -0.017

RAB8A (UniProt P61006)
inactive: bafetinib -0.043 | [1] -0.058 | nilotinib 0.037 | [2] -0.011 | dasatinib 0.018 | [3] 0.026 | [4] 0.05 | [5] 0.12 | tipifarnib -0.043 | mubritinib 0.014 | [6] 0.108 | [7] 0.031 | [8] 0.018 | [9] 0.017 | entinostat -0.049 | vorinostat -0.075 | citarinostat -0.046 | silmitasertib -0.022 | [10] -0.035 | [11] -0.033

RAD51 (UniProt Q06609)
inactive: bafetinib -0.002 | [1] 0.021 | nilotinib -0.082 | [2] -0.006 | dasatinib -0.009 | [3] 0.04 | [4] 0.037 | [5] 0.003 | tipifarnib 0.11 | mubritinib -0.017 | [6] 0.051 | [7] -0.019 | [8] -0.057 | [9] 0.031 | entinostat 0.001 | vorinostat 0.047 | citarinostat 0.018 | silmitasertib -0.003 | [10] -0.014 | [11] -0.012

RAB18 (UniProt Q9NP72)
inactive: bafetinib -0.046 | [1] -0.03 | nilotinib 0.016 | [2] -0.011 | dasatinib 0.036 | [3] -0.006 | [4] 0.013 | [5] 0.041 | tipifarnib 0.013 | mubritinib 0.012 | [6] 0.071 | [7] 0.034 | [8] -0.022 | [9] 0.007 | entinostat 0.046 | vorinostat 0.027 | citarinostat 0.017 | silmitasertib -0.014 | [10] 0.005 | [11] -0.039

RAB2B (UniProt Q8WUD1)
inactive: bafetinib -0.019 | [1] 0.06 | nilotinib 0.063 | [2] -0.018 | dasatinib 0.026 | [3] 0.02 | [4] 0.016 | [5] -0.036 | tipifarnib -0.018 | mubritinib 0.012 | [6] 0.037 | [7] 0.016 | [8] -0.012 | [9] -0.009 | entinostat 0.002 | vorinostat 0.006 | citarinostat 0.018 | silmitasertib -0.021 | [10] -0.059 | [11] -0.021

RAD21 (UniProt O60216)
inactive: bafetinib -0.026 | [1] -0.034 | nilotinib 0.033 | [2] -0.066 | dasatinib -0.069 | [3] -0.033 | [4] 0.048 | [5] -0.038 | tipifarnib 0.01 | mubritinib 0.05 | [6] -0.043 | [7] -0.001 | [8] -0.02 | [9] -0.018 | entinostat 0.001 | vorinostat 0.069 | citarinostat 0.056 | silmitasertib 0.003 | [10] -0.049 | [11] -0.093

RAN (UniProt P62826)
inactive: bafetinib -0.034 | [1] -0.025 | nilotinib 0.002 | [2] 0.01 | dasatinib 0.033 | [3] -0.008 | [4] -0.028 | [5] -0.022 | tipifarnib 0.02 | mubritinib 0.004 | [6] -0.028 | [7] -0.024 | [8] 0.024 | [9] -0.03 | entinostat -0.012 | vorinostat -0.033 | citarinostat -0.019 | silmitasertib 0 | [10] -0.017 | [11] -0.008
